Test results: article doi:10.1101/2020.03.26.992446
These are yes or no findings as the source states them, for the method shown. For part of these data: In cells and extracts the contact can be indirect. Some binding calls cover weakened binding; strength is not graded here. For part of these data: Sequences can lack the tags named with a protein.

Key:
DJ-1 K188R (human) = DJ-1 K188R (human) (UniProt Q99497); experiment: cross-linking
DJ-1 ΔC29 (human) = DJ-1 ΔC29 (human) (UniProt Q99497); experiment: cross-linking
DJ-1 ΔC6 (human) = DJ-1 ΔC6 (human) (UniProt Q99497); experiment: cross-linking
DJ-1 K188E (human) = DJ-1 K188E (human) (UniProt Q99497); experiment: cross-linking
DJ-1 ΔC2 (human) = DJ-1 ΔC2 (human) (UniProt Q99497); experiment: cross-linking
DJ-1 ΔC17 (human) = DJ-1 ΔC17 (human) (UniProt Q99497); experiment: cross-linking
DJ-1 D189A (human) = DJ-1 D189A (human) (UniProt Q99497); experiment: cross-linking
DJ-1 ΔC15 (human) = DJ-1 ΔC15 (human) (UniProt Q99497); experiment: cross-linking
DJ-1 D189L (human) = DJ-1 D189L (human) (UniProt Q99497); experiment: cross-linking
[1] = molecular target: DJ-1 ΔC3 (in HEK293T cells) (human) (UniProt Q99497); experiment: cross-linking
[2] = molecular target: DJ-1 ΔC3 (in DJ-1-/- MEFs) (human) (UniProt Q99497); experiment: cross-linking
DJ-1 ΔC23 (human) = DJ-1 ΔC23 (human) (UniProt Q99497); experiment: cross-linking
[3] = molecular target: DJ-1 L187E (in DJ-1-/- MEFs) (human) (UniProt Q99497); experiment: cross-linking
DJ-1 ΔC1 (human) = DJ-1 ΔC1 (human) (UniProt Q99497); experiment: cross-linking
[4] = molecular target: T1, Flag-tagged DJ-1 (human), Q99497; experiment: cross-linking; conditions: remark: other sources report otherwise
T1 chain: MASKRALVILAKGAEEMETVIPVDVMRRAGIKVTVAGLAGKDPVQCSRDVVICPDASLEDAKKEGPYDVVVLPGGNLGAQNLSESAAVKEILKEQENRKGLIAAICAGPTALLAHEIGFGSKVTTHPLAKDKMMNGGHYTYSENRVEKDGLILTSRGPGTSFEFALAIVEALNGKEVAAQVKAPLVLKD

[5] = molecular target: T2, Myc-tagged DJ-1 (human), Q99497; experiment: cross-linking; conditions: remark: other sources report otherwise
T2 chain: T1 chain

[6] = molecular target: T1, Flag-tagged DJ-1 (human), Q99497; experiment: co-IP; conditions: remark: other sources report otherwise
[7] = molecular target: T3, human DJ-1 WT (reintroduced into DJ-1-/- MEFs) (human), Q99497; experiment: cross-linking; conditions: remark: other sources report otherwise
T3 chain: T1 chain

[8] = molecular target: T4, purified DJ-1 WT (N-terminal 6×His-tagged) (human), Q99497; experiment: cross-linking; conditions: remark: other sources report otherwise
T4 chain: T1 chain

[9] = molecular target: T2, Myc-tagged DJ-1 (human), Q99497; experiment: co-IP; conditions: remark: other sources report otherwise

In the case of DJ-1 K188R (from UniProt Q99497 1-189), the binding (DJ-1 K188R (human)) is reported as “binds”.

For “DJ-1 ΔC29 (from UniProt Q99497 1-160) (domain or fragment)”, the binding (DJ-1 ΔC29 (human)) was “no binding”.

With “DJ-1 ΔC6 (from UniProt Q99497 1-183) (domain or fragment)” the binding (DJ-1 ΔC6 (human)) was “no binding”.

With DJ-1 K188E (from UniProt Q99497 1-189) the binding (DJ-1 K188E (human)) was “binds”.

In the case of “DJ-1 ΔC2 (from UniProt Q99497 1-187) (domain or fragment)”, the binding (DJ-1 ΔC2 (human)) is reported as “binds”.

With “DJ-1 ΔC17 (from UniProt Q99497 1-172) (domain or fragment)” the binding (DJ-1 ΔC17 (human)) was “no binding”.

In the case of DJ-1 D189A (from UniProt Q99497 1-189), the binding (DJ-1 D189A (human)) is reported as “binds”.

In the case of “DJ-1 ΔC15 (from UniProt Q99497 1-174) (domain or fragment)”, the binding (DJ-1 ΔC15 (human)) is reported as “no binding”.

For DJ-1 D189L (from UniProt Q99497 1-189), the binding (DJ-1 D189L (human)) was “binds”.

For “DJ-1 ΔC3 (in HEK293T cells) (from UniProt Q99497 1-186) (domain or fragment)”, the binding [1] was “no binding”.

For “DJ-1 ΔC3 (in DJ-1-/- MEFs) (from UniProt Q99497 1-186) (domain or fragment)”, the binding [2] was “no binding”.

With “DJ-1 ΔC23 (from UniProt Q99497 1-166) (domain or fragment)” the binding (DJ-1 ΔC23 (human)) was “no binding”.

“DJ-1 L187E (in DJ-1-/- MEFs) (from UniProt Q99497 1-189)” was tested, and the binding [3] was “no binding”.

“DJ-1 ΔC1 (from UniProt Q99497 1-188) (domain or fragment)” was tested, and the binding (DJ-1 ΔC1 (human)) was “binds”.

B1: Myc-tagged DJ-1, Q99497 1-189 (protein)
chain: T1 chain
For B1, the binding [4] was “binds”, the binding [5] was “binds” and the binding [6] was “binds”.

B2: human DJ-1 WT (reintroduced into DJ-1-/- MEFs), Q99497 1-189 (protein)
chain: T1 chain
With B2 the binding [7] was “binds”.

B3: purified DJ-1 WT (N-terminal 6×His-tagged), Q99497 1-189 (natural protein)
chain: T1 chain
In the case of B3, the binding [8] is reported as “binds”.

B4: Flag-tagged DJ-1, Q99497 1-189 (protein)
chain: T1 chain
B4 was tested, and the binding [4] was “binds” and the binding [9] was “binds”.
